# According to doi:10.1101/571406:
# These are yes or no findings as the source states them, for the method shown.
# Biological target: Lsr2 DNA binding domain (Lsr2BD), wild type (M. tuberculosis H37Rv) (UniProt P9WIP7)
# Experiment: solution NMR
substance,measurement,value
"Lsr2 DNA binding domain (Lsr2BD), wild type (from UniProt P9WIP7 66-112) (domain or fragment)",binding,no binding (tested: 0.5mM)
